Results are given in words; binding and its absence hold for the method and conditions named. Some entries that bind do so weakly or less than the wild type. Where a sequence is shown, tags or fusion partners need not be part of it.
Legend:
Test in all cases: two-hybrid; Gal4 DNA-binding domain hybrids of Rgt2-CTD with the Gal4 activation domain hybrid of Yck1 in yeast PJ69-4A; GAL-HIS3 reporter (SC-leu-trp-his + 20 mM 3-AT) and GAL-lacZ reporter (X-gal)
[1] = target: T1, BD-Rgt2-CTD (546-763) Δ665–696 (S. cerevisiae) (UniProt Q12300)
T1 sequence: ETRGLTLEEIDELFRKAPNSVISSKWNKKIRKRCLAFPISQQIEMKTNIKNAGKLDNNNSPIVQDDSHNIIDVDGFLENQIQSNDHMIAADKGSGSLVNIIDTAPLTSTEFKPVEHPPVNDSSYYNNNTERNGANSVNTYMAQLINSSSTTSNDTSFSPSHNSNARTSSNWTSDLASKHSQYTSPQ

[2] = target: T2, BD-Rgt2 (545-624) (S. cerevisiae) (UniProt Q12300)
T2 sequence: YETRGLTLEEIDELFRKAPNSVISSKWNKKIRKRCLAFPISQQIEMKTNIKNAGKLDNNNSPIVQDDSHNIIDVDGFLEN

[3] = target: T3, BD-Rgt2-CTD (546-763) (S. cerevisiae) (UniProt Q12300)
T3 sequence: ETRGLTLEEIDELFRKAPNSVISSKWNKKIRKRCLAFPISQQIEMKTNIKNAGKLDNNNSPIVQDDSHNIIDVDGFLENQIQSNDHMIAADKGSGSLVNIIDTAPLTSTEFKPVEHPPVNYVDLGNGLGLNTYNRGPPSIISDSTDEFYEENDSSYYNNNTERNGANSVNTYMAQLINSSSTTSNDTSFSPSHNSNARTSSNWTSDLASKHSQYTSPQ

binding [1]: no binding
binding [2]: no binding
binding [3]: binds
Substance: palmitoylation-defective AD-Yck1 (lacking the palmitoylation sites Cys537 and Cys538) (from UniProt P23291 1-538) (enzyme)

From PMC8803954
